From the supplement of paper PMC6411743
± gives the standard deviation of the averaged measurements. The list shows a part of the results.

Chains of the proteins cited; added tags and fusions are not shown. Lines headed by an entry give the natural chain unless they say otherwise; changes in a name come on top.
UniProt Q9NR12, whole entry: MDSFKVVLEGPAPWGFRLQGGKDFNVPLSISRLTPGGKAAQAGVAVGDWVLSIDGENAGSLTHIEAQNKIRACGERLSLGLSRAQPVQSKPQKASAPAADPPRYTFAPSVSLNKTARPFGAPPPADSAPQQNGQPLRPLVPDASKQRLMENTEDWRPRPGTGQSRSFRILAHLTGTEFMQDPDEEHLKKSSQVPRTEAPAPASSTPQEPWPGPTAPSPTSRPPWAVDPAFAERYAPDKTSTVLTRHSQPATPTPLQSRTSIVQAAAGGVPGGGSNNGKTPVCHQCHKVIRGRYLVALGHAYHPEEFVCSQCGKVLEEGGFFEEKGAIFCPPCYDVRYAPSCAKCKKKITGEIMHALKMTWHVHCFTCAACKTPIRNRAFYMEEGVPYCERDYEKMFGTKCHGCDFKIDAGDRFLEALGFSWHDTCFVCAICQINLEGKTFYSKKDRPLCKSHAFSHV
UniProt Q9NR28: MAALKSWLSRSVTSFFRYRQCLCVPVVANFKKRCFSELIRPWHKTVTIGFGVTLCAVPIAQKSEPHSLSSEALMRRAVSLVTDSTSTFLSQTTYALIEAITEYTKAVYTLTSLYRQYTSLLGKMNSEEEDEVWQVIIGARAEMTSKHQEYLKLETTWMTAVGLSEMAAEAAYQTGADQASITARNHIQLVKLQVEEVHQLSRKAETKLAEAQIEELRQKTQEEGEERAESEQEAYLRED
UniProt Q9HBH1: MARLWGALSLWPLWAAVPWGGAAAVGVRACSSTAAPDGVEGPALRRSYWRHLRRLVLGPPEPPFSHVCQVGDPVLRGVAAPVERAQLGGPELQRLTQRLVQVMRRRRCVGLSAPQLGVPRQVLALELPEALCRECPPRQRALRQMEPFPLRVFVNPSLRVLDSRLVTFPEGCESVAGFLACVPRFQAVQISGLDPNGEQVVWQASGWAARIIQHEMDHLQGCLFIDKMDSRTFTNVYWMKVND
UniProt Q9H8M2, whole entry: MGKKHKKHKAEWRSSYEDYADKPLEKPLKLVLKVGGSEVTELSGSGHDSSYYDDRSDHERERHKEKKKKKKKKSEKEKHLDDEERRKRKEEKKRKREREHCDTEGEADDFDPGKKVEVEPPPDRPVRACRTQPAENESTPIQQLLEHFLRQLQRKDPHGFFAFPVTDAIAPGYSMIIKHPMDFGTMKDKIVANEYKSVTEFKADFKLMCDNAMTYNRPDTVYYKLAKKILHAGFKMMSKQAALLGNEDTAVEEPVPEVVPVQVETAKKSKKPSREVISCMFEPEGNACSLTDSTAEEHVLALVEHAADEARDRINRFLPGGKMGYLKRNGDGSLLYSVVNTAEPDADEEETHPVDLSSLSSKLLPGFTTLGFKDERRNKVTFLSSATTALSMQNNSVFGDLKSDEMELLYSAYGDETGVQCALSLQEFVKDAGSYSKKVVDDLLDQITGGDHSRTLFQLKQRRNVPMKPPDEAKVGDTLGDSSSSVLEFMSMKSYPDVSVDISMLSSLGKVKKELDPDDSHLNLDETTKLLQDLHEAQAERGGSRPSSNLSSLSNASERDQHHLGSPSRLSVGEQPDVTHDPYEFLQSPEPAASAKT
UniProt Q9H857: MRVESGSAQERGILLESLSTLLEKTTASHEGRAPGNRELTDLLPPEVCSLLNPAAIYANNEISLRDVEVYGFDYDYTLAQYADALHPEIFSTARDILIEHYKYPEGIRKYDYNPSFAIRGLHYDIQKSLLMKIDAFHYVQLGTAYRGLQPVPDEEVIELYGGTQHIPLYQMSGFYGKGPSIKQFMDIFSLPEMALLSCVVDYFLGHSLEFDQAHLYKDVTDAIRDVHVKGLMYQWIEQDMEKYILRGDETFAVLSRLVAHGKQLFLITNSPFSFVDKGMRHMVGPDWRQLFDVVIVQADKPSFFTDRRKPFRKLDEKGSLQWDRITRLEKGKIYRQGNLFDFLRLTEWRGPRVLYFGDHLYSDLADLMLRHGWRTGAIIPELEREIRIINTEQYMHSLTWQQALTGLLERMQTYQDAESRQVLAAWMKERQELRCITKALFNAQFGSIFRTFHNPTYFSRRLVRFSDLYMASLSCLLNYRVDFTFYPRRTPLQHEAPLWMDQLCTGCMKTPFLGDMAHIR
UniProt Q9C035: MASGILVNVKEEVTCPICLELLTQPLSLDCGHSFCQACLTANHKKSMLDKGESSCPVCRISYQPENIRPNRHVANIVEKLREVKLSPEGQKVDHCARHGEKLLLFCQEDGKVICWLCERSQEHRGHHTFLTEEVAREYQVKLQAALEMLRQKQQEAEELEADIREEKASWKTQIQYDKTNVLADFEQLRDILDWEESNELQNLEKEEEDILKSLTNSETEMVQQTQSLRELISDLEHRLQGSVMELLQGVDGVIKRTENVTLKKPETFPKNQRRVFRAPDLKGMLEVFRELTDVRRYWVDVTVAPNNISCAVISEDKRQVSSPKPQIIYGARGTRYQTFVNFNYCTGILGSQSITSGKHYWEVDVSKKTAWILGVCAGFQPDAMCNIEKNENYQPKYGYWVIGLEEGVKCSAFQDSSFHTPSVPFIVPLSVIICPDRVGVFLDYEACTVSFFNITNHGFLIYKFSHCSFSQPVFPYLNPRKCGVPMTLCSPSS
UniProt Q9H2P0: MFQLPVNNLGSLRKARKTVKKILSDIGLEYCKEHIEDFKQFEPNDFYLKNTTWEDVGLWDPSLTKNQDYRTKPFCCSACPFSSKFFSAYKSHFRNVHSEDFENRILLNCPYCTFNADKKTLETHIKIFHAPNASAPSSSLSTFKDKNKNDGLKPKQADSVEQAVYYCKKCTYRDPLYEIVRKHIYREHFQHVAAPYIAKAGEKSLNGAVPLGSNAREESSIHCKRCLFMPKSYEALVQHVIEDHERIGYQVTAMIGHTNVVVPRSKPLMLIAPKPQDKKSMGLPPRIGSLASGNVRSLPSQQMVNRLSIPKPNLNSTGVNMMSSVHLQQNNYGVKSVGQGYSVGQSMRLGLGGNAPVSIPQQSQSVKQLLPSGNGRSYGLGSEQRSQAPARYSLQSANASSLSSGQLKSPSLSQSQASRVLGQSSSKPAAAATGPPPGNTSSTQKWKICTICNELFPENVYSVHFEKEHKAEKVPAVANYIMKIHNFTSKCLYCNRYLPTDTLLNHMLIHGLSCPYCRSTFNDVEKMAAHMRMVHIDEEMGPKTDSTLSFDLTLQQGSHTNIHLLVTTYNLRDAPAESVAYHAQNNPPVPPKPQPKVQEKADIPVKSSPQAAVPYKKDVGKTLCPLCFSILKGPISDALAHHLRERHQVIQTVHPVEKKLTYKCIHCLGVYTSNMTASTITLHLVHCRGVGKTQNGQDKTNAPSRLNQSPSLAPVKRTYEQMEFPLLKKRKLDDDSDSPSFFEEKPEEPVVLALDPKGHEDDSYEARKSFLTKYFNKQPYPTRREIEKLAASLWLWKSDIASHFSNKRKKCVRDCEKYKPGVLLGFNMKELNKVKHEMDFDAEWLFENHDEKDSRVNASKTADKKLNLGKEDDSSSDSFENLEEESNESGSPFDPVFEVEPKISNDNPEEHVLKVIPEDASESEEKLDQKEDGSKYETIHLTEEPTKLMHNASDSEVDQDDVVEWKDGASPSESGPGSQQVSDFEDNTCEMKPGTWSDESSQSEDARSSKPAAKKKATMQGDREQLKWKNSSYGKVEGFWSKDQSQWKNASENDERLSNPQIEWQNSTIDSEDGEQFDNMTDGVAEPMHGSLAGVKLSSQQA
UniProt Q9NS87: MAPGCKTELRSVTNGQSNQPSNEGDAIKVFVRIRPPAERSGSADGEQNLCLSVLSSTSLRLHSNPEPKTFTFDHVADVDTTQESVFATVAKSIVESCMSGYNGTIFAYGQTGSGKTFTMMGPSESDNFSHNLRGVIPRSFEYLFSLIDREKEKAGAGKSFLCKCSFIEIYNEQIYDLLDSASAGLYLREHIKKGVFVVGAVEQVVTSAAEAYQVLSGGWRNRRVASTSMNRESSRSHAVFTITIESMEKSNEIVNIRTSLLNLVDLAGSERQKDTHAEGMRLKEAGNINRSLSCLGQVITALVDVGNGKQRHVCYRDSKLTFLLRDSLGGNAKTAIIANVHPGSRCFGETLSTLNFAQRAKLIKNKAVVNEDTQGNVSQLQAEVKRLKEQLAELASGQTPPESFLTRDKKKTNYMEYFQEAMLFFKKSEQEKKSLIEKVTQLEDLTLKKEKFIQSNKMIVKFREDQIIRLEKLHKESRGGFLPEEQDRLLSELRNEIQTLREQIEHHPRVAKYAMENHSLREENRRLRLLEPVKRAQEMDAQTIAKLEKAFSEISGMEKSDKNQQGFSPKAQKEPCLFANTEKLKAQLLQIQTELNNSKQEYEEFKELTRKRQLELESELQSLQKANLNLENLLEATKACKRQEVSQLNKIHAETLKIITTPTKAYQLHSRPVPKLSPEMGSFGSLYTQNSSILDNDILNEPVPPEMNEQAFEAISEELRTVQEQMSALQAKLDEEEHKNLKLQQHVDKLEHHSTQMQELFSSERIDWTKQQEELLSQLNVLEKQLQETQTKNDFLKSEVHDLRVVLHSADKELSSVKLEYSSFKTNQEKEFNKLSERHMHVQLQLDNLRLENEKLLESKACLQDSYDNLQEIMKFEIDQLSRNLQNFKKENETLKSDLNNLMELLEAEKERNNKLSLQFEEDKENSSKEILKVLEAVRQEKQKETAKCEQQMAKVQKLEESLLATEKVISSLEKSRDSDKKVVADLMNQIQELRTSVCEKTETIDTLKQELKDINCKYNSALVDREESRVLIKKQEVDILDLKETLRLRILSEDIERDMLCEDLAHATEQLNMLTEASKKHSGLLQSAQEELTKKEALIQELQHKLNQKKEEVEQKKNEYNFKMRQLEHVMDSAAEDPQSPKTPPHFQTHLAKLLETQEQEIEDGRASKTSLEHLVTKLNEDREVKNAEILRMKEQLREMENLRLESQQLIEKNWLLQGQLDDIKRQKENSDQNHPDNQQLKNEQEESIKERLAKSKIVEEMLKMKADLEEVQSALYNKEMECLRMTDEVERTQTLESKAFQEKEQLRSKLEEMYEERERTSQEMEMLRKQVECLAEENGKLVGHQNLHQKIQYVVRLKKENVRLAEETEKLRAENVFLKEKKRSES
UniProt Q9H501: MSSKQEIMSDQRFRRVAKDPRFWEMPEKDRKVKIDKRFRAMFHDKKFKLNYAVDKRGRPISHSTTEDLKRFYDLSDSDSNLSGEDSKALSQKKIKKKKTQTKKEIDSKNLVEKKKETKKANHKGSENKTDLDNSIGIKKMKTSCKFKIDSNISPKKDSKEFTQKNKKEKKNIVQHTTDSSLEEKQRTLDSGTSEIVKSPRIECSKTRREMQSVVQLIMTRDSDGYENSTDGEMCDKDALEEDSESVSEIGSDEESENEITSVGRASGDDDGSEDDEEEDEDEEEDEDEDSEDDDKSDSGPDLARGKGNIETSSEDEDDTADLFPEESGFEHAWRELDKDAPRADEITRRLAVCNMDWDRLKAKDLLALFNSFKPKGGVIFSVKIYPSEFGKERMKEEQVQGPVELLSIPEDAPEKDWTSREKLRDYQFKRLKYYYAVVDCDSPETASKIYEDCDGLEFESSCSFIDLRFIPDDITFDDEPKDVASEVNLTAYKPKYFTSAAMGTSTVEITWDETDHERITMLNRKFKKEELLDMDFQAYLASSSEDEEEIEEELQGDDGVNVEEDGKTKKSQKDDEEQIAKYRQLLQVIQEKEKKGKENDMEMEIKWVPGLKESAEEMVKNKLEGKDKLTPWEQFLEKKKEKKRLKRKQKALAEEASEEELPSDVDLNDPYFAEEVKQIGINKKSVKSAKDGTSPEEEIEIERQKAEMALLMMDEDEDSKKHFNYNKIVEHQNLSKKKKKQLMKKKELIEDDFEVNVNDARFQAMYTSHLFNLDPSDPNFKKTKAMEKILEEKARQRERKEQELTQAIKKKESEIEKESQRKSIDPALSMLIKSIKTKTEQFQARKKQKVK
UniProt Q9H7D7: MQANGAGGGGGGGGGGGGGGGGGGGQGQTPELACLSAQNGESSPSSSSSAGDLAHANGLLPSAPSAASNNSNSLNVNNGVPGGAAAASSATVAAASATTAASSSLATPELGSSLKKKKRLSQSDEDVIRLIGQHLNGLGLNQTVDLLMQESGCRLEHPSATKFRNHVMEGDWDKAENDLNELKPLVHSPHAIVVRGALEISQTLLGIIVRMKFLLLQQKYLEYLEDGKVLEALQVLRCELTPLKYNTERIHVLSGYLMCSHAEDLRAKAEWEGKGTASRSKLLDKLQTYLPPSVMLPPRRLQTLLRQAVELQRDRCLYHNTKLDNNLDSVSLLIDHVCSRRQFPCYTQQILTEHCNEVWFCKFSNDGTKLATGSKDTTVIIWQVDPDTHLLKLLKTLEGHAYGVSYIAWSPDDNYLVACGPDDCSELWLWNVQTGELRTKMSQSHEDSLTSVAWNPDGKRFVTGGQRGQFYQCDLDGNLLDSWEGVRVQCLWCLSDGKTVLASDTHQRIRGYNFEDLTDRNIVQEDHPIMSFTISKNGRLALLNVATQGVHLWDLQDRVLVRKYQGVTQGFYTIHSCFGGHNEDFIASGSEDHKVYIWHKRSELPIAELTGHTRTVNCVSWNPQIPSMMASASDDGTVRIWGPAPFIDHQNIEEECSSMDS

Compound: Nc1nc2c(ncn2[C@@H]2O[C@H](COP(=O)(O)OP(=O)(O)OP(=O)(O)O)[C@@H](O)[C@H]2O)c(=O)[nH]1 [guanosine triphosphate]
Assay: NP40-soluble protein abundance relative to vehicle (solubility fold change) (ratio); higher = more soluble protein in presence of GTP
Procedure, shortened: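 Data come from three independent experiments in which Dounce-homogenised Jurkat crude lysate was treated at eight concentrations from 0.1 to 10 mM. Treatment ran 10 min at room temperature and then 3 min at 37 °C, after which 0.8% NP40 and benzonase were added for 60 min at 4 °C before ultracentrifugation. The supernatant underwent TMT labelling and LC-MS/MS, and vsn-normalised intensities were expressed as fold change against the detergent-processed vehicle in each replicate.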

Target	NP40-soluble protein abundance (concentration: 0.1mM)	NP40-soluble protein abundance (concentration: 0.5mM)	NP40-soluble protein abundance (concentration: 1mM)	NP40-soluble protein abundance (concentration: 2mM)	NP40-soluble protein abundance (concentration: 4mM)	NP40-soluble protein abundance (concentration: 6mM)	NP40-soluble protein abundance (concentration: 8mM)	NP40-soluble protein abundance (concentration: 10mM)
PDLIM7 (UniProt Q9NR12)	0.921 ± 0.038	0.937 ± 0.052	0.894 ± 0.067	0.91 ± 0.085	0.882 ± 0.041	0.894 ± 0.046	0.913 ± 0.05	0.915 ± 0.036
UniProt Q9NR28 and related entries	0.964 ± 0.011	0.957 ± 0.055	0.972 ± 0.041	0.963 ± 0.075	0.976 ± 0.059	0.96 ± 0.068	0.94 ± 0.033	1.01 ± 0.035
PDF (UniProt Q9HBH1)	1.03 ± 0.061	1.02 ± 0.099	0.988 ± 0.1	0.935 ± 0.015	0.976 ± 0.055	0.942 ± 0.071	0.914 ± 0.089	0.934 ± 0.083
UniProt Q9H8M2 and related entries	0.966 ± 0.054	1.05 ± 0.13	1.03 ± 0.085	0.995 ± 0.033	1.04 ± 0.11	1.13 ± 0.12	1.11 ± 0.029	1.09 ± 0.04
UniProt Q9H857 and related entries	1.2 ± 0.13	1.18 ± 0.21	1.04 ± 0.14	1.08 ± 0.19	1.09 ± 0.25	0.973 ± 0.092	0.988 ± 0.084	0.939 ± 0.096
UniProt Q9C035 and related entries	1.05 ± 0.013	1.09 ± 0.012	1.02 ± 0.019	1.04 ± 0.023	1.02 ± 0.06	1.02 ± 0.017	0.998 ± 0.07	0.946 ± 0.059
CHD8 (UniProt Q9HCK8)	0.995 ± 0.041	1.03 ± 0.019	1.02 ± 0.022	1.03 ± 0.025	1 ± 0.025	1.02 ± 0.011	1.045 ± 0.01	1.027 ± 0.0028
UniProt Q9H173 and related entries	0.901 ± 0.014	0.891 ± 0.046	0.955 ± 0.03	1.02 ± 0.037	0.917 ± 0.025	0.898 ± 0.1	0.893 ± 0.061	0.9143 ± 0.0027
ADNP (UniProt Q9H2P0)	1.02 ± 0.021	1.05 ± 0.055	1.09 ± 0.059	1.14 ± 0.058	1.18 ± 0.1	1.22 ± 0.12	1.27 ± 0.14	1.25 ± 0.14
NMRAL1 (UniProt Q9HBL8)	1.02 ± 0.033	0.953 ± 0.02	0.902 ± 0.027	0.901 ± 0.051	0.859 ± 0.068	0.86 ± 0.019	0.858 ± 0.031	0.845 ± 0.063
TOLLIP (UniProt Q9H0E2)	0.947 ± 0.048	0.875 ± 0.059	0.938 ± 0.061	0.911 ± 0.055	0.901 ± 0.062	0.898 ± 0.064	0.887 ± 0.085	0.886 ± 0.073
KIF15 (UniProt Q9NS87)	0.975 ± 0.046	1.01 ± 0.052	0.978 ± 0.05	0.964 ± 0.05	0.94 ± 0.043	0.951 ± 0.034	0.958 ± 0.05	0.935 ± 0.058
UniProt Q9GZY8-2|Q9GZY8-5	0.94 ± 0.088	0.927 ± 0.12	0.955 ± 0.099	0.902 ± 0.16	0.907 ± 0.11	0.892 ± 0.13	0.918 ± 0.1	0.899 ± 0.089
ESF1 (UniProt Q9H501)	0.981 ± 0.085	0.968 ± 0.045	1.01 ± 0.05	0.987 ± 0.071	1.01 ± 0.081	1.02 ± 0.065	1.06 ± 0.079	1.07 ± 0.069
UniProt Q9H7D7 and related entries	1.15 ± 0.12	1.16 ± 0.14	1.17 ± 0.17	1.25 ± 0.22	1.28 ± 0.27	1.24 ± 0.27	1.25 ± 0.25	1.19 ± 0.2
